Reference: paper PMC5064454

How the values were obtained:
Test in all cases: EMSA
[1] = target: p53-320 (C-terminal region, OD + basic domain) (Homo sapiens) (UniProt P04637); conditions: 50 mM KCl, EMSA: 5 mM Tris pH 7.6, 0.5 mM EDTA, 0.01% Triton X-100, 50 mM KCl, 0.5 mM DTT, on ice 20 min (30 min for plasmids), recombinant protein, residues 320-393, label: 5' 32P
[2] = target: wtp53 (full-length wild-type p53) (Homo sapiens) (UniProt P04637); conditions: 50 mM KCl, only residual binding; EMSA: 5 mM Tris pH 7.6, 0.5 mM EDTA, 0.01% Triton X-100, 50 mM KCl, 0.5 mM DTT, on ice 20 min (30 min for plasmids); recombinant protein; residues 1-393; label: 5' 32P
p53CΔ30 (Homo sapiens) = p53CΔ30 (Homo sapiens) (UniProt P04637); conditions: 50 mM KCl, EMSA: 5 mM Tris pH 7.6, 0.5 mM EDTA, 0.01% Triton X-100, 50 mM KCl, 0.5 mM DTT, on ice 20 min (30 min for plasmids), recombinant protein, residues 1-363, label: 5' 32P
[3] = target: p53T (GSTp53T) (Homo sapiens) (UniProt P04637); conditions: 50 mM KCl, EMSA: 5 mM Tris pH 7.6, 0.5 mM EDTA, 0.01% Triton X-100, 50 mM KCl, 0.5 mM DTT, on ice 20 min (30 min for plasmids), recombinant protein, residues 363-393, protein details: GST, label: 5' 32P
[4] = target: p53CD (GSTp53CD, central DBD) (Homo sapiens) (UniProt P04637); conditions: 50 mM KCl, EMSA: 5 mM Tris pH 7.6, 0.5 mM EDTA, 0.01% Triton X-100, 50 mM KCl, 0.5 mM DTT, on ice 20 min (30 min for plasmids), recombinant protein, residues 94-312, protein details: GST, label: 5' 32P
[5] = target: p53CT (GSTp53CT) (Homo sapiens) (UniProt P04637); conditions: 50 mM KCl, only residual binding; EMSA: 5 mM Tris pH 7.6, 0.5 mM EDTA, 0.01% Triton X-100, 50 mM KCl, 0.5 mM DTT, on ice 20 min (30 min for plasmids); recombinant protein; residues 320-393; protein details: GST; label: 5' 32P
[6] = lower than wtp53, folded or branched DNA

GACGGTATCGATAAGAGACATGCCTAGACATGCCTCTTGATATCGAATTC (double strand) [P1-50]
binding result ([1]; only minimal binding): binds more weakly

TTGGGGCGCTTATGGGGAGGGTGGGGAGGGTGGGGAAGGTGGGGAGGAGACT (double strand) [dsPu52/Py52]
binding result [2]: binds more weakly | binding result (p53CΔ30 (Homo sapiens); only residual binding): binds more weakly | binding result ([3]; only residual binding): binds more weakly | binding result ([4]; only residual binding): binds more weakly | binding result [5]: binds more weakly

TTGGGGCGCTTATGGGGAGGGTGGGGAGGGTGGGGAAGGTGGGGAGGAGACT [Pu52]
binding result (p53CΔ30 (Homo sapiens); only minimal binding, folded or branched DNA): binds more weakly | binding result ([3]; lesser extent than wtp53 and p53CT, folded or branched DNA): binds more weakly | binding result [1, 6]: binds more weakly | binding result ([4]; minimal binding, folded or branched DNA): binds more weakly

TGGGGAGGGTGGGGAGGGTGGGGAAGGTGGGGA [Pu33]
binding result [1, 6]: binds more weakly | binding result [4, 6]: binds more weakly

GAGACATGCCTAGACATGCCTC (double strand) [P1-22]
binding result ([1]; only minimal binding): binds more weakly

GTAAGAGACATGCCTAGACATGCCTCATCG (double strand) [P1-30]
binding result ([1]; only minimal binding): binds more weakly

Weaker means in comparison with the reference protein, sequence or condition of that experiment. For some assays here: Construct, isoform or probe ends are uncertain for at least one entry.
